Each number is a percent effect as filed.
The controls that fix the scale are not given in the record; negative values are as filed.
The compounds are a random part of those screened.
A dash means the value is not listed here; it may have been measured.

A: 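Whole-cell assay for inhibitors of Mycobacterium tuberculosis growth, labelled Cornell in the record; the read-out is not stated. The concentration is filed as 10 mM, unlikely as a test dose, so the dose is not known. Higher means stronger inhibition (inferred from two other growth screens of the library). About 53,000 compounds were tested under these conditions; 1.7% (about 900) showed 50% or more at least once.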
B: 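Assay on Mycobacterium tuberculosis, filed only as a heat shock assay from Cornell; the read-out is not stated. The concentration is filed as 10 mM, unlikely as a test dose, so the dose is not known. Higher reads as stronger inhibition (inferred: compounds with an IC50 in retests scored well above the rest). Size under these conditions: about 69,000 compounds, about 930 of them at 50% or above in at least one test.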

structure	A	B
Cn1c(NCC(O)c2ccccc2F)c(C#N)c(=O)n(C)c1=O (centres undefined)	-	-4.889%
CCOC(=O)C1(Cc2cccc(OC)c2)CCCN(Cc2ncc[nH]2)C1 (centres undefined)	-10.28%	-11.26%
NC(=O)C1CCN(c2nc3nccc(-c4ccncc4)c3c(=O)[nH]2)CC1	-16.81%	-21.03%
Cc1cnc(N2CCC3(CC2)CCN(c2cncnc2)C3=O)nc1	-23.46%	-18.54%
[H][C@@]12C=C[C@@]([H])(C1)[C@H](C(=O)N1CCN(c3cc(C)nc(C)c3)CC1)C2	14.2%	-20.18%
CC(=O)Nc1ccc(Cl)c(C(=O)N(C)Cc2nc(C)c[nH]2)c1	17.09%	-17.76%
CC1(C)COCCN1C(=O)Cc1cc(Cl)c2c(c1)OCCO2	-19.67%	-26.95%
CN1CCN(C(=O)NC2CCCC2)Cc2cccnc21.O=C(O)C(F)(F)F	11.75%	-0.7775%
Cc1noc(C)c1CN1C[C@@H](NC(=O)N(C)C)[C@H](C(C)C)C1	29.61%	-18.24%
CN(CC(=O)NCc1cccnc1N1CCCCC1)C(=O)c1cccs1	-	-2.326%
O=C(NCCNc1ccccn1)Nc1cc(C(F)(F)F)c[nH]c1=O	-	-27.51%
COc1cccc(C2CC(=O)Nc3nc(N)sc32)c1OC (centres undefined)	76.98%	22.39%
CN1CC(C(=O)NC2(c3cccc(F)c3)CCOCC2)CC1=O (centres undefined)	19.6%	12.86%
COCC(=O)N1CCCN(c2ncnc3c2CCNCC3)CC1	15.3%	-8.325%
O=C(O)C(F)(F)F.[H][C@]12CCN(Cc3ccccc3)CC[C@@]1([H])S(=O)(=O)N(CC(=O)N(C)C)C2	-5.003%	20.37%
Cc1nc(C)n(CC2CCCN(CCCc3ccccc3)C2)n1 (centres undefined)	-62.71%	-1.798%
COC(=O)CCNC(=O)c1c[nH]cc1-c1ccccc1OC	-	11.31%
COc1ccc2c(c1)NC(C1CCN(C(=O)C3CC3)CC1)NS2(=O)=O (centres undefined)	12.61%	-19.01%
CCc1nnc2n1CCN(CC(=O)Nc1sccc1C#N)C2	7.689%	-17.36%
Cn1c(=O)oc2ccc(NC(=O)N3CCc4ccccc4C3)cc21	26.31%	26.75%
Cc1nc(O)cc(C2CCN(C(=O)CN(C)c3ccccc3)CC2)n1	-18.97%	4.834%
CC(C)=CCCC(C)(O)c1cc(C(N)=O)no1 (centres undefined)	37.88%	-2.007%
Cc1cc(C(F)(F)F)nn1C(C)C(=O)Nc1ccc(Cl)cn1 (centres undefined)	21.91%	-11.1%
NC(=O)Cc1ccc(OCc2noc(C(=O)N3CCCC3)n2)cc1	-15.73%	-10.23%
Cc1ccc(N(C)C2CCN(C(=O)CCc3ccco3)CC2)nn1	-3.757%	21.61%
CN(Cc1ccccn1)C(=O)CNC(=O)N1CCc2ccccc2C1	-2.402%	-0.6041%
NCCn1nc(C2CCN(Cc3ccccc3Cl)C2)c2nccnc21 (centres undefined)	-15.05%	-33.03%
CCc1ncc(C(=O)N2CCCC(c3nccn3CCOC)C2)cn1 (centres undefined)	18.2%	-22.6%
O=C(c1ccc2nncn2c1)N1CCCC1c1noc(C2CC2)n1 (centres undefined)	4.994%	14.06%
N#Cc1ccc(NCC(=O)Nc2ccn(Cc3cccnc3)n2)cc1	18.89%	-13.15%
O=C(c1cc(F)ccc1Br)N1CCN(C(=O)C2CC2)CC1	-28.97%	-17.88%
O=C(NC[C@@H]1CCCO1)c1ccc(S(=O)(=O)N[C@@H]2CCNC2)cc1	34.52%	-21.85%
CC(=O)Nc1nc(C2CCN(CC(N)=O)CC2)cs1	1.083%	5.685%
COCCC(=O)N1CCOCC2(CCN(Cc3cccs3)C2)C1.O=C(O)C(F)(F)F (centres undefined)	26.23%	-16.95%
CCN1CCCC(c2c(-c3ccccc3)ncn2Cc2cccnc2)C1 (centres undefined)	-	-45.76%
CN(C)c1ncc(-c2cc(C(=O)NC(C)(C)CO)n(CC3CC3)c2)cn1	-	-14.74%
CCOc1cccc(CNC(=O)N2CCC(Cc3cnn(C)c3)C2)c1 (centres undefined)	-	-4.351%
Cc1c(C(=O)N2CCCC(n3nnc4cc(F)ccc43)C2)cnn1C (centres undefined)	6.687%	-3.797%
CCCN1CCCn2c(nc(CNC(=O)c3ccsc3)cc2=O)C1.O=C(O)C(F)(F)F	22.37%	-19.01%
COCC1c2c(cnn2C)CCN1Cc1ccc(C)cc1.O=C(O)C(F)(F)F.O=C(O)C(F)(F)F (centres undefined)	2.944%	-35.12%
CC1CN(C(=O)CN(Cc2ccco2)C2CC2)CCO1 (centres undefined)	-	11.47%
COC(=O)c1sc(C(NC(=O)c2ccccc2)C2CC2)nc1C (centres undefined)	-	-20.92%
CC1CN(C)c2ccccc2CN1C(=O)c1ccncc1 (centres undefined)	-49.58%	17.89%
CC(=O)N1CCc2nc(C3CCN(C(=O)c4ccccc4)C3)ncc2C1 (centres undefined)	-44.87%	-2.282%
CCCc1nnnn1CC(=O)NCc1cccc(C)c1	14.77%	9.751%
CCC(CC)C(=O)N(C)CC(=O)Nc1ccc(Br)cn1	-4.125%	-23.1%
N#Cc1ccc(NC2CCN(CC(F)F)CC2)c(F)c1	-	-5.939%
C=C(C)COc1cccc(CNCc2nc3ccccc3c(=O)[nH]2)c1	-	22.25%
CC(NCCN1CCC(N(C)C)CC1)c1ccc(F)cc1N(C)C (centres undefined)	-45.48%	-14.59%
Cn1cc(C(=O)NCCC(=O)N2CCCCC2)c(-c2cccnc2)n1	-45.34%	-3.82%

The first 3 entries again:

Cn1c(NCC(O)c2ccccc2F)c(C#N)c(=O)n(C)c1=O (centres undefined) read B: -4.889%.
CCOC(=O)C1(Cc2cccc(OC)c2)CCCN(Cc2ncc[nH]2)C1 (centres undefined) read A: -10.28%; B: -11.26%.
NC(=O)C1CCN(c2nc3nccc(-c4ccncc4)c3c(=O)[nH]2)CC1 read A: -16.81%; B: -21.03%.

Source: ChEMBL document CHEMBL3988442, “University of Dundee, Small-Polar-MMV Screening Library” (2021).